Measurements published in article PMC8120823.
These are yes or no findings as the source states them, for the method shown. In cells and extracts the contact can be indirect. Where a sequence is shown, tags or fusion partners need not be part of it.

Target: T1, 6His-SCO4804 recombinant protein (S. coelicolor) (UniProt Q9KY60)
T1 sequence: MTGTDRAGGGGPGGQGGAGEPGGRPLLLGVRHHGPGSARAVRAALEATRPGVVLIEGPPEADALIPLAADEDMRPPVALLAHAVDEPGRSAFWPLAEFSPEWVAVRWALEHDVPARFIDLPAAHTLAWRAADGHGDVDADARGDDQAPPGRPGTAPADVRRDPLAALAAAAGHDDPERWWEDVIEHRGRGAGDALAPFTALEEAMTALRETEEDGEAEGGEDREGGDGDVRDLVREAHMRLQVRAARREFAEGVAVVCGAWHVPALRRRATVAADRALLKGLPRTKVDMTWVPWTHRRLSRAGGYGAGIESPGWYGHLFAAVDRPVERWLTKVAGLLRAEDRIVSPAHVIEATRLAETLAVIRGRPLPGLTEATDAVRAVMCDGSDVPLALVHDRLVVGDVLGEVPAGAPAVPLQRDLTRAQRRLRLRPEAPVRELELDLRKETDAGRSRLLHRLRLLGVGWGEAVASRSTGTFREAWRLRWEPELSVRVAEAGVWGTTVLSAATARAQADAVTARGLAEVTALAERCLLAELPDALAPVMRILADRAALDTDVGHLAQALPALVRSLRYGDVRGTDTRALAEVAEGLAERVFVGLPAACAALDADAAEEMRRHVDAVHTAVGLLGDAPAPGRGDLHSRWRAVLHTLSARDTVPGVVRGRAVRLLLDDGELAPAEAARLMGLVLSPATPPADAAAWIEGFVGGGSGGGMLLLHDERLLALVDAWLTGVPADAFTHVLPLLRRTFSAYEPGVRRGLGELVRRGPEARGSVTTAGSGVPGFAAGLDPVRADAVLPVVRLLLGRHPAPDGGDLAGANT
Experiment: pull-down; 6His-SCO4804 bound to Ni-NTA agarose resin, incubated with lysate of the TopA-induced PS04 strain; TN buffer with 40 mM imidazole; elution with 200 mM imidazole; Western blot with anti-TopA polyclonal antibodies and 6xHis tag antibody; only the target purified

binding: no binding
B1: topoisomerase I (TopA) (enzyme, UniProt Q9X909 1-952)
chain: MSPTSETAKGGRRLVIVESPAKAKTIKGYLGPGYVVEASVGHIRDLPSGAAEVPEKYTGEVRRLGVDVEHDFQPIYVVNADKKSQVKKLKDLLKESDELFLATDEDREGEAIAWHLQEVLKPKIPVKRMVFHEITKDAIRAAVANPRELNQKLVDAQETRRILDRLYGYEVSPVLWKKVMPRLSAGRVQSVATRLVVERERERIAFRSAEYWDLTGTFATGRAGDASDPSSLVARLQTVDGRRVAQGRDFDSLGQLKSANTLHLDEANARALAAALENTRFAVRSVESKPYRRSPYAPFRTTTLQQEASRKLGFGAKSTMQVAQKLYENGYITYMRTDSTTLSDTAVSAARAQVTQLYGADYLPPQPRTYAGKVKNAQEAHEAIRPSGDRFRTPAETGLTGDQFKLYELIWKRTVASQMKDATGNSVTVKIGGAASDGRDVEFSASGKTITFHGFLKAYVEGADDPNAELDDRERRLPQVAEGDALTAEEITVDGHATKPPARYTEASLVKELEEREIGRPSTYASIIGTILDRGYVFKKGTALVPSFLSFAVVNLLEKHFGRLVDYDFTARMEDDLDRIARGEAQSVPWLRRFYFGEGDGTGGGGAADAGNGDGDHLGGLKELVTDLGAIDAREVSSFPVGNDIKLRVGRYGPYVERGEKDAENHQRADVPEDLAPDELSVELAEELLAKPSGDFELGTDPATGHAIVAKDGRYGPYVTEVLPEGTPKTGKNAVKPRTASLFKSMSLDTVTLDDALKLMSLPRVVGADAEGVEITAQNGRYGPYLKKGTDSRSLQTEDQLFEITLEEALAIYAQPKQRGRAAAKPPLKELGTDPVSEKPVVVKDGRFGPYVTDGETNATLRSDDSVEEITPERGYELLAEKRAKGPAKKTAKKAVKKTAAKKAPAKKAAATKKTAAAKTTAAKKTAAKSTAKKTTAKTAAKKATASKTSED
